# Microarray screen: hit calls

Calls as published in the ROBIN set (doi:10.1002/anie.202211358).

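The test is a small-molecule microarray: each compound is printed twice on a reactive slide, and binding shows as fluorescence of the labelled oligonucleotide after washing. For the PreQ1, TPP and SAM-II riboswitches the laboratory earlier reported (doi:10.1038/s41467-019-09493-3) 1 µM RNA, 2 h, and a rule that included a mean Z-score above 3 (spot signal-to-noise against the whole library), a score well above that on a control array, and duplicate spots agreeing (coefficient of variation under 100). The data file gives only the calls; its cut-offs may differ, and compounds hitting several targets are kept. These are primary screening calls, not affinities; a compound without a hit may have attached poorly or may still bind in solution.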 “active” means called a hit, “inactive” means screened and not called a hit. The compounds are a random part of those screened. A target missing from an entry has no call listed here. A dash means that no call is listed here.

Oligonucleotides screened, 5′ to 3′:
SAM-II: SAM-II riboswitch RNA pseudoknot, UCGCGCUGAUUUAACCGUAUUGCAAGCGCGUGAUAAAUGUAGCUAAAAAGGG. About 21,000 compounds screened, about 200 hits.
PreQ1: PreQ1 riboswitch RNA pseudoknot, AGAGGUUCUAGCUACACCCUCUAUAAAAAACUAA. From B. subtilis. About 24,000 compounds screened, about 170 hits.
TPP: TPP riboswitch RNA three-way junction, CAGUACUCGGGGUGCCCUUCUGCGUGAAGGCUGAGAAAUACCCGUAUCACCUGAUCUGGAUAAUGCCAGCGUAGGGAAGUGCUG. About 24,000 compounds screened, about 160 hits.

| compound | SAM-II | PreQ1 | TPP |
|---|---|---|---|
| `CN1CCN([C@H]2CCN(C(=O)Cn3cc4ccccc4n3)C[C@H]2CCCO)CC1` | inactive | inactive | inactive |
| `Fc1cc(Br)ccc1Nc1nc2ccccc2c2nncn12` | inactive | inactive | inactive |
| `O=C(CN1C(=O)c2cccc3cccc(c23)C1=O)NCCO` | inactive | inactive | inactive |
| `CC1(c2ccc(Br)cc2)CC(c2ccc(Br)cc2)=Nc2ccccc2N1` (stereo unspecified) | inactive | inactive | inactive |
| `COc1ccc(C(=O)c2sc3nc(N)nc(SC)c3c2N)cc1` | inactive | inactive | inactive |
| `Cc1ccc(NC(=O)c2ccc(NCc3ccco3)c([N+](=O)[O-])c2)cc1Cl` | inactive | inactive | inactive |
| `CC(C)C(=O)Nc1ncc(-c2cc(C(F)F)nn2-c2c(Cl)cccc2Cl)s1` | inactive | inactive | inactive |
| `N#Cc1cc(-c2ccccc2)[nH]c1-c1nccc2ccccc12` | inactive | inactive | inactive |
| `O=C(COCc1ccccc1)N1CCC2(CC1)c1ccccc1CC2O` (stereo unspecified) | inactive | inactive | inactive |
| `CN1CCC(n2nc(C3(c4ccccc4)CC3)nc2C2CCNC2)CC1` (stereo unspecified) | inactive | inactive | inactive |
| `COc1ccc(NC2c3ccccc3C(=O)N2Cc2ccco2)cc1OC` (stereo unspecified) | inactive | inactive | inactive |
| `CCN1CCCC1CNCc1cccc(Oc2ncccn2)c1.Cl.Cl` (stereo unspecified) | inactive | inactive | inactive |
| `Cc1ccc(NC(=O)N2CCC(N3CCN(CCO)CC3)CC2)cc1C(C)C` | inactive | inactive | inactive |
| `CCC[C@@H]1C[C@@H](C(=O)N[C@@H]([C@H]2O[C@H](SC)[C@H](O)[C@@H](O)[C@H]2O)[C@@H](C)O)N(C)C1.Cl` | inactive | inactive | inactive |
| `CC(C)(C)c1cc(C(C)(C)C)c(NC(=O)c2c[nH]c3ccccc3c2=O)cc1O` | inactive | inactive | inactive |
| `Cc1cccc(C)c1Nc1c(-c2ccc(N(C)C)cc2)nc2cnccn12` | inactive | inactive | inactive |
| `O=C1Nc2ccccc2C1Cc1nc2ccccc2c(=O)n1CCCO` (stereo unspecified) | - | inactive | inactive |
| `CC(=O)Nc1ccccc1NC(=O)CNC(C)C12CC3CC(CC(O)(C3)C1)C2` (stereo unspecified) | inactive | inactive | inactive |
| `C=CCSc1nc(N)cc(=O)[nH]1` | inactive | inactive | inactive |
| `CN1CCN(C2(CNc3nc4c(c(=O)[nH]3)CCNC4)CCCCC2)CC1` | inactive | inactive | inactive |
| `Nc1nc2c(c(NCc3ncc[nH]3)n1)CCN(C(=O)[C@H]1CCCO1)CC2` | inactive | inactive | inactive |
| `CCn1c(CC2CCNCC2)nn(CC2COc3ccccc3O2)c1=O` (stereo unspecified) | inactive | inactive | inactive |
| `N#CC1=C(N)OC2=C(C1c1ccccc1)S(=O)(=O)N(Cc1ccccc1F)c1ccccc12` (stereo unspecified) | - | inactive | inactive |
| `CC(C)c1cccc(C(C)C)c1NC1=NS(=O)(=O)c2ccccc21` | inactive | inactive | inactive |
| `Cc1cc(C)cc(NC(=O)Cn2nnc(C(=O)Nc3cccc(C)c3C)c2N)c1` | inactive | inactive | inactive |
| `CN(C)C(C(=O)N1CCC(CCO)CC1)c1ccccc1F` (stereo unspecified) | inactive | inactive | inactive |
| `Cc1ccc(-n2nc(CO)c(C(=O)NCCCc3ccccc3)n2)cc1C` | - | inactive | inactive |
| `CCOC(=O)c1cnc2ccc(C(=O)OC)cc2c1Nc1ccc(N(C)C)cc1` | inactive | inactive | inactive |
| `Cc1ccc(C(=O)C(NC(=O)c2cccs2)Nc2ccc(S(N)(=O)=O)cc2)cc1` (stereo unspecified) | inactive | inactive | inactive |
| `Cc1ccc(NC(=O)c2nnn(Cc3ccc(Br)cc3)c2N)c(Cl)c1` | inactive | inactive | inactive |
| `COc1c(NC(C)=O)c2ccccc2c2ccccc12` | inactive | inactive | inactive |
| `CCNC(=O)[C@@H]1C[C@@H](N)CN1c1ncnc2[nH]ccc12` | inactive | inactive | inactive |
| `CCCCC(N)C(=O)N1CCc2nc(NC)nc(C(=O)N3CCCC3)c2C1` (stereo unspecified) | inactive | inactive | inactive |
| `COC(=O)C1=C(N)OC2=C(C(=O)CC(C)(C)C2)C1c1cc(CN2CCOCC2)cs1` (stereo unspecified) | inactive | inactive | inactive |
| `CCOC(=O)c1cnc2ccc(Cl)cc2c1Nc1ccc(C#N)cc1` | inactive | inactive | inactive |
| `COC(=O)c1ccc(C(=O)OC)c(NC2=NS(=O)(=O)c3ccccc32)c1` | inactive | inactive | inactive |
| `CCOC(=O)c1cnc2c(-c3ccc(F)cc3)c(C)nn2c1N` | - | inactive | inactive |
| `Cc1ccc(Nc2cc(N3CCN(C(=O)c4ccco4)CC3)nc(C)n2)cc1` | - | inactive | inactive |
| `CCCOCCNCc1c[nH]nc1-c1ccc(F)cc1` | inactive | inactive | inactive |
| `COc1ccccc1NC(=O)Cn1c(C(O)c2ccccc2)nc2ccccc21` (stereo unspecified) | inactive | inactive | inactive |
| `COc1ccccc1C1C(C#N)=C(N)OC2=C1S(=O)(=O)N(Cc1ccc(C)cc1)c1ccccc12` (stereo unspecified) | - | inactive | inactive |
| `CC1CC2(CC(C)(c3csc(Nc4ccccc4)n3)OC2=O)C(=O)O1` (stereo unspecified) | inactive | inactive | inactive |
| `COC(=O)CCSc1ccc(C(=O)OC)cc1N` | - | inactive | inactive |
| `Cc1c(CN2CCN(C(=O)C(C)C)CC2)sc2c(N3CCOCC3)nc(-c3cnc(N)nc3)nc12` | inactive | inactive | inactive |
| `COc1cccc(-c2cnc(NCc3ccc(C(F)(F)F)cc3)n2C)c1` | inactive | inactive | inactive |
| `CS(=O)(=O)c1ccc(CC(=O)N2CCOCC(CO)C2)cc1` (stereo unspecified) | inactive | inactive | inactive |
| `CN(CC1CCN(CCc2ccccc2F)CC1)C(=O)C1CNCC(=O)N1` (stereo unspecified) | inactive | inactive | inactive |
| `CCOC(=O)c1cc(-c2ccccc2)nc2ccc(C)cc12` | inactive | inactive | inactive |
| `CCC(O)c1nc2ccccc2n1CCC1CCCCC1` (stereo unspecified) | - | inactive | inactive |
| `O=S1(=O)N=C(Nc2ccccc2)c2ccccc21` | inactive | inactive | inactive |
| `O=C(O)CCCc1c[nH]c2ccccc12` | inactive | inactive | inactive |
| `CCCCS(=O)(=O)N1CCN(c2cc(C)nc(Nc3ccc(C)cc3)n2)CC1` | - | inactive | inactive |
| `O=C1CC(N2CCCCC2)C=C1Nc1ccc(F)cc1` (stereo unspecified) | inactive | inactive | inactive |
| `CCc1nc2nc(C)cc(Nc3cc(C)ccc3C)n2n1` | inactive | inactive | inactive |
| `Cc1ccccc1OCC(O)Cn1c(C2CC(=O)N(Cc3ccccc3)C2)nc2ccccc21` (stereo unspecified) | - | inactive | inactive |
| `CC(=O)c1cc(CN2C[C@@H](CN3CCCN(C)CC3)C[C@H](CO)C2)n(C)c1` | inactive | inactive | inactive |
| `CCCc1cc(NCc2ccccc2C)n2nc(-c3cccnc3)nc2n1` | - | inactive | inactive |
| `Cn1nc(C(C)(C)C)cc1NC(=O)NCc1ccc(CO)cc1` | inactive | inactive | inactive |
| `O=C(NCC(O)c1ccccc1)C(=O)Nc1ccc(F)cc1` (stereo unspecified) | inactive | inactive | inactive |
| `c1cc(-n2nnc3cnccc32)ccn1` | inactive | inactive | inactive |
| `CC1=C(C#N)c2nc(N)c(C#N)c(C)c2C1=Cc1ccc(C)o1` | inactive | inactive | inactive |
| `CCCc1nc(-c2cc3cc(C)ccc3nc2NCc2cccc(OC)c2)no1` | - | inactive | inactive |
| `Cc1cc(N2CCN(C3CCOC4(CCOCC4)C3)CC2)nc(N)n1` (stereo unspecified) | inactive | inactive | inactive |
| `CN(C)Cc1c(N)n(Cc2ccco2)c(=O)[nH]c1=O` | inactive | inactive | inactive |
| `Nc1cc(OC(=O)c2ccc(F)cc2)nn1S(=O)(=O)c1ccc(F)cc1` | inactive | inactive | inactive |
| `CCOC(=O)c1ccc2ncc(C(=O)OCC)c(Nc3cc(Cl)ccc3OC)c2c1` | inactive | inactive | inactive |
| `Nc1nccc(N2CCC(n3nccc3NC(=O)c3cccc(F)c3)CC2)n1` | inactive | inactive | inactive |
| `Nc1nc(-c2ccc(-c3ccccc3)cc2)cs1` | inactive | inactive | inactive |
| `CCNc1oc(-c2ccc(S(=O)(=O)N3CCCC(C)C3)cc2)nc1C#N` (stereo unspecified) | - | inactive | inactive |
| `COc1cccc([C@@H]2C[C@H](c3cccc(Cl)c3)n3nc(N)nc3N2)c1` | inactive | inactive | inactive |
| `COc1ccc(C(=O)c2c(N)nc3n2CCCC3)cc1OC` | inactive | inactive | inactive |
| `CC(C)c1cc(NC(=O)N2CCC(C(O)c3ccccn3)CC2)n(C)n1` (stereo unspecified) | inactive | inactive | inactive |
| `CCN(C(=O)c1[nH]c2c(C)cc(C)cc2c1C)[C@H]1COC[C@@H]1O` | inactive | inactive | inactive |
| `FC(F)(F)c1ccccc1Nc1nc(-c2cccnc2)cs1` | inactive | inactive | inactive |
| `CCCOc1cccc(C2c3c(-c4cc(C)ccc4O)n[nH]c3C(=O)N2CCCO)c1` (stereo unspecified) | - | inactive | inactive |
| `OC1COCCN(Cc2cnn(-c3cccc(F)c3)c2)C1` (stereo unspecified) | inactive | inactive | inactive |
| `CCOC(=O)C1CCN(C(=O)c2ccccc2N)CC1` | inactive | inactive | inactive |

The first 8 entries again:

- CN1CCN([C@H]2CCN(C(=O)Cn3cc4ccccc4n3)C[C@H]2CCCO)CC1 | SAM-II: inactive; PreQ1: inactive; TPP: inactive
- Fc1cc(Br)ccc1Nc1nc2ccccc2c2nncn12 | SAM-II: inactive; PreQ1: inactive; TPP: inactive
- O=C(CN1C(=O)c2cccc3cccc(c23)C1=O)NCCO | SAM-II: inactive; PreQ1: inactive; TPP: inactive
- CC1(c2ccc(Br)cc2)CC(c2ccc(Br)cc2)=Nc2ccccc2N1 (stereo unspecified) | SAM-II: inactive; PreQ1: inactive; TPP: inactive
- COc1ccc(C(=O)c2sc3nc(N)nc(SC)c3c2N)cc1 | SAM-II: inactive; PreQ1: inactive; TPP: inactive
- Cc1ccc(NC(=O)c2ccc(NCc3ccco3)c([N+](=O)[O-])c2)cc1Cl | SAM-II: inactive; PreQ1: inactive; TPP: inactive
- CC(C)C(=O)Nc1ncc(-c2cc(C(F)F)nn2-c2c(Cl)cccc2Cl)s1 | SAM-II: inactive; PreQ1: inactive; TPP: inactive
- N#Cc1cc(-c2ccccc2)[nH]c1-c1nccc2ccccc12 | SAM-II: inactive; PreQ1: inactive; TPP: inactive